Results as given in publication PMC9219861.
These are yes or no findings as the source states them, for the method shown. Binding seen in cells or lysates may run through a third protein. Some binding calls cover weakened binding; strength is not graded here. For some assays here: Tags and fused reporters may be left off the sequences shown.

Protein sequences, listed by entry. Tags and fused reporters are not part of them.
UniProt O96017: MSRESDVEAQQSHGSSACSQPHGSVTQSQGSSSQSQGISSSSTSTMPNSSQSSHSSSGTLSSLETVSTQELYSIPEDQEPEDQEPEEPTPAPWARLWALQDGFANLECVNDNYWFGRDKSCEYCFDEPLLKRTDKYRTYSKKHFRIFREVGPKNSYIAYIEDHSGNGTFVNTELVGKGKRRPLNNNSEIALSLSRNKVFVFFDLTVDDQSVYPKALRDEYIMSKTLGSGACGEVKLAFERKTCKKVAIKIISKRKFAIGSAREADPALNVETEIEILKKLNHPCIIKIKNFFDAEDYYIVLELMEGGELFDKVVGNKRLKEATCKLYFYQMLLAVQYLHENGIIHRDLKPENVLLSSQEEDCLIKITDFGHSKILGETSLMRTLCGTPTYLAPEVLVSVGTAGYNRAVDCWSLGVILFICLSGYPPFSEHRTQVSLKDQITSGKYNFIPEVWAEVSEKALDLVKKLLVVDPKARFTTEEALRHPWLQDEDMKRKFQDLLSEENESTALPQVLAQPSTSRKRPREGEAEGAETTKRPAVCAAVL

How the values were obtained:
[1] = biological target: T1, Serine/threonine-protein kinase ULK1, endogenous (human (endogenous in HCT116)) (UniProt O75385); assay: co-IP; endogenous proteins in HCT116 lysates; immunoprecipitated with ULK1 antibody or CHK2 antibody (rabbit IgG as control) on protein A/G beads, overnight 4 °C, Western blot; cells untreated or treated with EBSS, H2O2 (500 μM), NAC (2 mM) then EBSS, CHK2 inhibitor (20 μM) then EBSS
T1 sequence: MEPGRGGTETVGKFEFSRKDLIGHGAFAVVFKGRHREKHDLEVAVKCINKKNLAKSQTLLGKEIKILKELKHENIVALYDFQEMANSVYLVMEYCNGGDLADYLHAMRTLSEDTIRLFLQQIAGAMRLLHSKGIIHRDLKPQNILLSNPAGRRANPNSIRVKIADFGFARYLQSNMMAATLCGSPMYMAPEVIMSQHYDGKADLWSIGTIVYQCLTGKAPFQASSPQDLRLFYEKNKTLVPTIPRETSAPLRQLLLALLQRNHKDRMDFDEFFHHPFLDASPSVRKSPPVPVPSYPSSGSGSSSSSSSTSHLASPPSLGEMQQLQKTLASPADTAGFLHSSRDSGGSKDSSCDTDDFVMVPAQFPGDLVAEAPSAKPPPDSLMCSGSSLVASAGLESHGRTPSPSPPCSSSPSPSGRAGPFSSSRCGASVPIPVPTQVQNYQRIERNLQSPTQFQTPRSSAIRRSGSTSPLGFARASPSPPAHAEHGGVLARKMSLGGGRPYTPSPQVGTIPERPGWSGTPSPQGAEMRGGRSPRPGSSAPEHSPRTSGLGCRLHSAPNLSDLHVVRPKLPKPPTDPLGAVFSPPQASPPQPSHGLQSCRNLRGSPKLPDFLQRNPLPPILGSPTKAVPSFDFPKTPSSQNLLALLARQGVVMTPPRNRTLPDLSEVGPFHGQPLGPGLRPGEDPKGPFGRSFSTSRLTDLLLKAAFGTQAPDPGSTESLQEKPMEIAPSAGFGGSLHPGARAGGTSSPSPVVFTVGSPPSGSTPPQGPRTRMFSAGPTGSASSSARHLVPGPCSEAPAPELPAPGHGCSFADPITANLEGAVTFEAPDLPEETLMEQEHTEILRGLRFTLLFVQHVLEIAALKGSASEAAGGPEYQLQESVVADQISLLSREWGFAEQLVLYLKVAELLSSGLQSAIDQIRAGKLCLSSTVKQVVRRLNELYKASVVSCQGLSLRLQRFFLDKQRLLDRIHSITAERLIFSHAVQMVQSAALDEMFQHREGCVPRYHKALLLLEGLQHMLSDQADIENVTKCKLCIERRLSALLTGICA

GST-ULK1 = biological target: T2, GST-ULK1 (UniProt O75385); assay: pull-down; purified GST or GST-ULK1 incubated with in vitro-translated FLAG-tagged CHK2; Western blot; only the target purified
T2 sequence: T1 sequence

binding [1]	binding (GST-ULK1)	Substance
binds	–	Cell cycle checkpoint kinase 2 (CHK2), endogenous (from UniProt O96017 1-543)
–	binds	FLAG-tagged CHK2, in vitro translated (from UniProt O96017 1-543)
